Some entries share one result that the patent states for a list of compounds.
How the values were obtained:
Conditions in all cases: up to 100 μg/ml
[1] = system: Thp-1 cells; assay: Cytotoxicity, standard MTT assay, Thp-1 cells
[2] = system: HL-60 cells; assay: Cytotoxicity, standard MTT assay, HL-60 cells
[3] = system: A431 cells; assay: Cytotoxicity, standard MTT assay, A431 cells; type: cell-based, human

Measured: growth inhibition / cytotoxic effect (MTT)

C=CCCCCCCCCCC1OC(CO)C(O)C1O (stereo not drawn) [Compound 1]
No substantial growth inhibition: [1] | [2] | [3]

C=CCCCCCCCCCC1OC(COC2OC(CO)C(O)C2O)C(O)C1O (stereo not drawn) [Compound 4]
No substantial growth inhibition: [1] | [2] | [3]

C=CCCCCCCCCC[C@H]1O[C@H](CO)[C@@H](O)[C@@H]1O [Compound 2]
No substantial growth inhibition: [1] | [2] | [3]

From patent publication US9663548B2, “10-α/β-D-arabinofuranosyl-undecenes as potential anti-mycobacterial agents and process for the preparation thereof” (priority 2011, dated 2017)
